{"source": "patent US20190029637A1", "about": "“A WEARABLE SENSOR, AND METHOD, TO MONITOR ANTI-COAGULATION THERAPY” (The Regents of the University of California, priority 2016, published 2019)", "key": {"[1]": {"assay": "Photoacoustic imaging of heparin in methylene blue-doped whole human blood"}, "[2]": {"assay": "Photoacoustic imaging of methylene blue / heparin in buffer"}, "[3]": {"conditions": "cited from earlier work"}}, "note": "Like-named read-outs stand apart in the source and are kept apart here."}
{"substance": "heparin", "values": [{"measurement": "detection limit of heparin", "setting": "[1]; human blood with 0.8 mM methylene blue, n=3", "result": 0.28, "unit": "U/mL"}, {"measurement": "increase in photoacoustic signal", "setting": "[2]; 6.4 U/mL heparin at 710 nm excitation", "result": 30, "unit": "fold"}, {"measurement": "detection limit (photoacoustic signal vs heparin concentration)", "setting": "[2]; buffer, heparin 0 to 6.4 U/mL", "result": 14.2, "unit": "mU/mL"}]}
{"substance": "low molecular weight heparin [LMWH]", "values": [{"measurement": "lowest concentration of LMWH that could be detected in blood", "setting": "[1]; methylene blue-doped human blood", "result": 72, "unit": "µg/mL"}]}
{"substance": "oversulfated chondroitin sulfate [OSCS]", "values": [{"measurement": "quantitation of OSCS in heparin", "setting": "[3]; 1H-NMR", "result": 0.1, "unit": "wt %"}, {"measurement": "LOD of OSCS in heparin", "setting": "[3]; SAX-HPLC", "result": 0.03, "unit": "wt %"}, {"measurement": "quantitation of OSCS in heparin", "setting": "[3]; capillary electrophoresis (CE)", "result": 0.05, "unit": "wt %"}, {"measurement": "LOD of OSCS in heparin", "setting": "[3]; colorimetric chemosensors", "result": 0.003, "unit": "wt %"}, {"measurement": "LOD of OSCS in heparin", "setting": "[3]; heparin enzyme immunoassay", "result": 0.1, "unit": "wt %"}, {"measurement": "LOD of OSCS in heparin", "setting": "[3]; potentiometric assay", "result": 0.5, "unit": "wt %"}]}
